Assay results as given in PubChem BioAssay AID504467 (National Center for Advancing Translational Sciences (NCATS), 2011).
In all, about 330,000 compounds went through this assay and about 7,700 (2.3%) were called active. The inconclusive results got no clear call from the source; some entries with a clear call stand among them for comparison. Calls follow the shape of the dose curve; as a rule, active = well fitted inhibition curve with a large enough effect; inconclusive = small, poorly fitted or top-dose-only effect, or effect the other way; inactive = flat fitted curve, though single readings scatter. Potencies of inconclusive entries are doubtful fits and often do not repeat.

Assay: qHTS screen for small molecules that inhibit ELG1-dependent DNA repair in human embryonic kidney (HEK293T) cells expressing luciferase-tagged ELG1; also: nearly all actives have a fitted effect of over 55% in size
Conditions: HEK293T ELG1-luciferase reporter, luminescence, 16 h, DNA damage induced by 5-fluorouridine; series mostly up to 46.1 µM
Procedure, shortened: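 Reporter activity after DNA damage by 5-fluorouridine is monitored. Compound-treated cells incubate 16 hr at 37 °C, then ONE-Glo is added for 30 min before luminescence reading.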
Potency is read from the fitted curve at half-maximal effect.

Row | Structure (SMILES) | Potency
1 | Cc1ccc(Cl)c(OCC(O)CN(CCO)CCO)c1 (stereo unspecified) | inconclusive: 5.8 µM [inhibitor, single point]
2 | O=C(O)CCc1ccc(-c2cccs2)n1CC1CCCO1 (stereo unspecified) | inactive
3 | CNS(=O)(=O)c1ccc(NC(=O)Nc2cccc(F)c2)cc1 | inconclusive: 32.6 µM [activator, single point]
4 | O=C(CNC(=O)Cc1ccccc1)N=Nc1c(O)[nH]c2ccccc12 | inactive
5 | COc1ccc(-c2noc(CCC(=O)N3CCN(c4ccc(C(F)(F)F)cc4)CC3)n2)cc1 | inconclusive: 29.1 µM [activator, single point]
6 | CN(Cc1c(C(=O)N/N=C/c2ccccc2F)nnn1-c1nonc1N)c1ccccc1 | inconclusive: 23.1 µM [inhibitor, single point]
7 | N#CC1CCCc2c1[nH]c1ccc([N+](=O)[O-])cc21 (stereo unspecified) | inconclusive: 4.61 µM [inhibitor, single point]
8 | CCC(C)NC(=S)Nc1ccc(C(=O)OC)cc1 (stereo unspecified) | inactive
9 | Cc1ccc(C)c(OCc2cc(C(=O)N(C)Cc3nccn3C)no2)c1 | inactive
10 | COC(=O)c1cc(-c2ccc(C)cc2)n[nH]1 | inconclusive: 20.6 µM [activator, partial curve]
11 | O=S(=O)(c1ccc(Br)c2nsnc12)N1CCOCC1 | inactive
12 | CCN(CC)c1ccc(NC(=O)CN2CCN(CC(=O)Nc3ccccc3OC)CC2)cc1 | inconclusive: 29.1 µM [inhibitor, single point]
13 | O=C(/C=C\c1ccc2c(c1)OCO2)NC1(C(=O)Nc2ccc3c(c2)OCCO3)CCCCC1 | inconclusive: 10.3 µM [inhibitor, partial curve, poor fit]
14 | COc1ccccc1CCN=C(N)NS(=O)(=O)c1ccc(C)c(C)c1 | inactive
15 | COc1cc(NC(=O)c2cccnc2Sc2ccc(Cl)cc2)cc(OC)c1OC | active: 8.2 µM
16 | CCO[C@@H]1OC(C(=O)N2CCOCC2)=C[C@H](c2ccc(Br)cc2)[C@H]1CCCO | inactive
17 | COc1ccc(-c2nnc3ccc(SCC(=O)Nc4cc(C)on4)nn23)cc1 | inconclusive: 5.17 µM [inhibitor, full curve]
18 | CC(=O)NC1=C(N(C)C2CCS(=O)(=O)C2)C(=O)c2ccccc2C1=O (stereo unspecified) | inconclusive: 20.6 µM [inhibitor, partial curve, poor fit]

Row | Structure (SMILES) | Potency
19 | CCN(C(=O)CSc1cccc[n+]1[O-])c1ccccc1 | inconclusive: 29.1 µM [activator, single point]
20 | O=C1CC(N2CCN(Cc3ccc(Cl)cc3)CC2)C(=O)N1CCc1ccccc1 (stereo unspecified) | inactive
21 | CC1(C)Cc2nc3oc4c(=S)nc[nH]c4c3cc2CO1 | inconclusive: 16.4 µM [activator, partial curve, poor fit]
22 | O=C(CCCN1C(=O)NC2(CCCC2)C1=O)Nc1ccc(Cl)c(S(=O)(=O)N2CCOCC2)c1 | inactive
23 | Cc1ccc(NC(=O)CSc2ccc(C(N)=O)cc2[N+](=O)[O-])cc1 | inconclusive: 16.4 µM [activator, partial curve]
24 | COc1ccc(NC(=O)c2cccc(NC(=O)C(C)C)c2)c([N+](=O)[O-])c1 | inactive
25 | CC(C)c1cc(C(=O)N2CCCC(Nc3ccc(F)cc3)C2)n[nH]1 (stereo unspecified) | inconclusive: 14.6 µM [activator, partial curve, poor fit]
26 | Cc1ccccc1NC(=O)c1sc2nc(N3CCOCC3)c3c(c2c1N)CCCC3 | inconclusive: 7.3 µM [inhibitor, full curve, poor fit]
27 | Cc1ccc(NC(=O)CN(C)C(=O)COC(=O)CNS(=O)(=O)c2ccc(F)c(F)c2F)cc1 | inconclusive: 20.6 µM [activator, single point]
28 | CCc1c(C)nc2ccc(Br)cc2c1SCCC#N | active: 4.11 µM
29 | CCOC(=O)c1c(NC(=O)Cn2cnc([N+](=O)[O-])n2)sc2c1CCCC2 | inconclusive: 16.4 µM [inhibitor, partial curve, poor fit]
30 | O=C(N/N=C/c1ccncc1)c1cc2c(ccc3ccccc32)o1 | inactive
31 | COc1ccc(C(=O)NCCC2=CCCCC2)cc1 | inconclusive: 0.517 µM [activator, full curve]
32 | Cc1ccc(C)c(N(C)C(=O)c2cc3c(=O)[nH]c4ccc(C)cc4c3s2)c1 | inactive
33 | Cc1cc(C)nc(N/C(=N\S(=O)(=O)Cc2ccccc2)Nc2ccc(F)c(Cl)c2)n1 | inconclusive: 29.1 µM [inhibitor, single point]
34 | C=CCn1c(SCc2ccc(C#N)cc2)nnc1-c1cccc(OC)c1 | inconclusive: 23.1 µM [inhibitor, single point]
35 | COc1cc(C(=O)c2ccccc2)c(OC)cc1C(=O)Nc1ccc(O)cc1 | inconclusive: 20.6 µM [inhibitor, partial curve, poor fit]
36 | O=C(C1COc2ccccc2O1)N1CCc2ccccc21 (stereo unspecified) | inconclusive: 14.6 µM [activator, partial curve]

From entry 20 up to 21, copied from above:
Row | Structure (SMILES) | Potency
20 | O=C1CC(N2CCN(Cc3ccc(Cl)cc3)CC2)C(=O)N1CCc1ccccc1 (stereo unspecified) | inactive
21 | CC1(C)Cc2nc3oc4c(=S)nc[nH]c4c3cc2CO1 | inconclusive: 16.4 µM [activator, partial curve, poor fit]
